Primary screen of a compound library

A: 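Whole-cell growth test on Mycobacterium tuberculosis, read after 3 days in glucose-containing 7H9 medium; the read-out is not stated. Compounds at 50 µM. Higher reads as more growth inhibition (inferred: compounds with an IC50 in retests scored well above the rest). Size under these conditions: about 69,000 compounds, about 760 of them at 50% or above in at least one test.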
B: 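Whole-cell growth test on Mycobacterium tuberculosis, read after 4 days in a medium based on cholesterol and the lipid DPPC; the read-out is not stated. Concentration: 50 µM. Higher reads as more growth inhibition (inferred: compounds with an IC50 in retests scored well above the rest). About 69,000 compounds were tested under these conditions; 0.54% (about 370) showed 50% or more at least once.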

Each number is a percent effect as filed.
The controls that fix the scale are not given in the record; negative values are as filed.
The compounds are a random part of those screened.
Two or more numbers in one place are separate tests of the same structure; such repeats can differ widely.

Result for CNCC(=O)Nc1cccc(-c2cnc(NCCS(C)(=O)=O)nc2)c1 was A: 7.86%; B: -16.94%.
Result for Cc1cc(NC(=O)CN2CCN(c3nccs3)C(C)C2)on1 (stereo unspecified) was A: 19.47% & -3.722%; B: 16.14%.
Result for COCCn1c2c(ccc1=O)CC(NS(C)(=O)=O)CC2 (stereo unspecified) was A: -38.46%; B: -36.04%.
Result for Cn1nc(CNC(=O)C2CCN(S(C)(=O)=O)CC2)cc1C1CC1 was A: -9.845%; B: -17.65%.
Result for COCCNC(=O)C1CCCN(c2ccc3nncn3n2)C1 (stereo unspecified) was A: -12.71%; B: -25.48%.
Result for Cc1ccccc1C(=O)NCCC(=O)NS(=O)(=O)c1cccnc1 was A: 2.516% & -2.09%; B: -3.934%.
Result for CN(Cc1noc(C2CC2)n1)C1CCN(Cc2ncc[nH]2)C1 (stereo unspecified) was A: -32.76%; B: -0.1987%.
Result for Cc1ccc2[nH]c(CN(C)Cc3ccccc3C(=O)O)nc2c1 was A: -4.761% & -19.15%; B: -4.423%.
Result for NCc1n[nH]c(=O)n1-c1ccccc1Oc1ccccc1 was A: -10.23%; B: 8.895%.
Result for CC(=O)N(c1ccc(C)cc1)c1nc(CN2CCCCC2C)cs1 (stereo unspecified) was A: -14.68%; B: -15.03%.
Result for O=C(O)C(F)(F)F.[H][C@@]12CN(CC)C[C@]1([H])[C@H](OC)CCN2S(=O)(=O)c1ccccc1F was A: -4.974%; B: -1.474% & 9.627%.
Result for COCCN1CCC(CNC(=O)Nc2ccc(SC(F)(F)F)cc2)C1 (stereo unspecified) was A: 30.48%; B: 15.26%.
Result for CC(=O)N1CCC(C(=O)NCc2cc[nH]n2)(c2ccccc2)CC1 was A: -9.367%; B: -7.601%.
Result for CCN(Cc1nc2c(cnn2C)c(=O)[nH]1)c1cccc(F)c1 was A: -41.21%; B: -27.04%.
Result for O=C(NCCn1cccc1)C1CCCOC1 (stereo unspecified) was A: -4.161%; B: 1.104%.
Result for [H][C@@]12CCN(C(=O)c3ccnnc3)C[C@@]1([H])O[C@@H](c1ccncn1)C2 was A: -11.69%; B: -13.62%.
Result for Cc1cccnc1CC(C)N(C)C(=O)c1cccs1 (stereo unspecified) was A: -11.76%; B: 5.787%.
Result for Fc1cccc(-n2ccc(CN3CCCC3Cn3cncn3)n2)c1 (stereo unspecified) was A: -0.3655%; B: 0.5127%.
Result for Cc1cnc2n(c1=O)C(CC(=O)NCc1cc(-c3cccs3)on1)CS2 (stereo unspecified) was A: -55.8%; B: -23.44%.
Result for CNS(=O)(=O)CCCN(C)Cc1cc(C)ccc1OC was A: 15.76%; B: -3.902%.
Result for CCC(C)[C@H](NC(=O)c1cc(Br)ccc1-n1cnnn1)C(=O)OC (stereo partly specified) was A: -2.478%; B: -13.66%.
Result for O=C(CCCOCc1ccccc1)N1CCCC1c1ccccn1 (stereo unspecified) was A: 2.881%; B: 7.205%.
Result for CCOc1ccc(NC(C)C(=O)Nc2cc(C)no2)cc1 (stereo unspecified) was A: -3.018%; B: 7.101%.
Result for O=c1c(S(=O)(=O)N2CCCCC2)cccn1Cc1ccccc1Cl was A: -20.28% & -0.2096%; B: -13.05%.
Result for O=C(NCc1ccnc(OCC(F)(F)F)c1)NCC1CCOC1 (stereo unspecified) was A: 0.08561% & 20.79%; B: -17.71%.
Result for CCS(=O)(=O)Nc1ccc(C(=O)NCCCN2CCCC2)cc1 was A: -7.072% & -18.55%; B: -30.18%.
Result for CCn1nnc2c1C(COC)CN(Cc1ccco1)C2 (stereo unspecified) was A: -77.36%; B: -38.85%.
Result for COCCN(C)C(=O)Nc1ccc(C(=O)NCCC(=O)OC)cc1 was A: -7.484%; B: -6.285% & -2.402%.
Result for COCCc1noc(CN2CCN(CC(O)c3ccccc3)CC2)n1 (stereo unspecified) was A: -5.515%; B: -6.236%.
Result for CCOC(=O)c1sc2ccsc2c1CNS(C)(=O)=O was A: 1.31%; B: 1.034%.
Result for CCn1c(C)cc(C(=O)N2C[C@@H](C(=O)O)[C@H](c3ccccc3)C2)c1C was A: -22.25%; B: 6.416%.
Result for [H][C@@]12CCN(S(=O)(=O)Cc3ccccc3)[C@]1([H])CCC(=O)N2C was A: -61.94%; B: -54.23%.
Result for CCCc1nccn1-c1ccncc1 was A: 22.25%; B: 7.391%.
Result for CCOc1c(Br)cc(CNCCc2nnc3n2CCCCC3)cc1OC.Cl was A: -0.8049%; B: 11.51%.
Result for COCc1nccc(C2CCCN(Cc3cccc(C#N)c3)C2)n1 (stereo unspecified) was A: -53.03%; B: -35.17%.
Result for CN1CCN(C(=O)c2cc3sccc3n2Cc2ccccc2)CC1 was A: -7.908% & 15.28%; B: 11.61%.
Result for Cc1cc(O)cc(C2CCCN2C(=O)c2ccn(C)n2)n1 (stereo unspecified) was A: 2.874%; B: -19.5%.
Result for CN(C)c1nccc(-c2cnc(N(C)C)[nH]c2=O)n1 was A: 8.279%; B: -12.98%.

The last 4 entries again:

{"structure": "COCc1nccc(C2CCCN(Cc3cccc(C#N)c3)C2)n1", "stereo": "stereo unspecified", "A": -53.03, "B": -35.17}
{"structure": "CN1CCN(C(=O)c2cc3sccc3n2Cc2ccccc2)CC1", "A": "-7.908 & 15.28", "B": 11.61}
{"structure": "Cc1cc(O)cc(C2CCCN2C(=O)c2ccn(C)n2)n1", "stereo": "stereo unspecified", "A": 2.874, "B": -19.5}
{"structure": "CN(C)c1nccc(-c2cnc(N(C)C)[nH]c2=O)n1", "A": 8.279, "B": -12.98}

Measurements from “University of Dundee, Small-Polar-MMV Screening Library” (2021), ChEMBL document CHEMBL3988442.